Experimental data: PubChem BioAssay AID1439 (NMMLSC, 2008)
Among all 220,000 compounds or so, about 770 (0.35%) were called active. Inconclusive means that the source gave no clear call. Such entries were picked first, then a sample of the others. Rule as the data show it: active = binding response below about 49% or above about 150%; inconclusive = no clear call, values can overlap the other calls; inactive = in between.

Sequences of proteins named here, by UniProt entry; tags and fusion partners are left off.
UniProt P09471, whole entry, looked up: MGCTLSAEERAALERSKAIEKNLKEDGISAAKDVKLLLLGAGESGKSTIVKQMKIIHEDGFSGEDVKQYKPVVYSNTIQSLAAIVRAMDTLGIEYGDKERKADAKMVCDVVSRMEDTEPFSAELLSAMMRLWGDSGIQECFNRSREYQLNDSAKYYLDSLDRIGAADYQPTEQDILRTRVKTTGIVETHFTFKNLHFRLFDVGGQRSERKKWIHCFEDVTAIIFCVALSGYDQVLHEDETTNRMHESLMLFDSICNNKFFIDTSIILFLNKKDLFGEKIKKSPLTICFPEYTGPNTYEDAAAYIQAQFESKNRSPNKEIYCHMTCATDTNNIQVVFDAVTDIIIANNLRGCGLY

Each compound was assayed against Guanine nucleotide-binding protein G(o) subunit alpha (Homo sapiens) (UniProt P09471) (assay: RGS7-Galphao binding modulators, primary screen, biochemical, multiplexed bead flow cytometry (AID 1439;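 also: fluorescent Galphao held in activated GDP-AlF4 state binding bead-coupled RGS7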)). Details: at 10 µM, actives lie on both sides.

Structure (SMILES)	binding response (% of control)
Cc1cc(=O)oc2cc(NS(=O)(=O)c3ccccc3)ccc12	inconclusive: 99.6%
CCCCCCN(C(=O)CCCCCN1C(=O)NC(c2ccc(-c3ccccc3)cc2)C(C(=O)OCc2ccccc2)=C1C)C(C(=O)NCCCC)c1ccc(O)c(C(=O)OC)c1 (centres undefined)	inconclusive: 129%
CC1CC(C)(C)NC(=S)N1CCC(=O)N1CCc2ccccc2C1 (centres undefined)	inconclusive: 101%
O=C(NC(=S)Nc1ccc2oc(=O)ccc2c1)c1ccccc1F	inconclusive: 35.3%
CCOC(=O)CNC(=O)c1cccnc1Oc1ccc(Cl)cc1	inconclusive: 99.4%
Cc1cc(-c2onc(C)c2C(N)=O)no1	inconclusive: 109%
CCOC(=O)c1c(NC(=O)COC(=O)c2cc(OC)c(OC)cc2[N+](=O)[O-])sc(C)c1C	inactive: 104%
COc1cc(C(=O)NNC(=S)NC(=O)/C=C/c2ccccc2)cc(OC)c1OC	inconclusive: 116%
COc1nc(OCCNS(=O)(=O)c2ccc(C)cc2)nc(N(C)C)n1	inconclusive: 155%
Cc1ccc(NC(=O)Nc2cccc(C)n2)c(C)c1	inconclusive: 214%
CCCc1nnc(NC(=O)CCC(=O)NCc2ccc(OC)cc2)s1	inconclusive: 128%
O=C(Nc1ccccc1F)Oc1cccc(OC(=O)Nc2ccccc2F)c1	inconclusive: 151%
COc1cc(SC)ccc1C(=O)Nc1ccccc1	inactive: 96.1%
CC(C)NC(=O)c1sc2c(c1C(=O)Nc1cccnc1)CCCC2	inconclusive: 101%
COc1ccccc1NC(=O)OCC#CCOC(=O)Nc1ccccc1OC	inconclusive: 105%
COc1cc(C2CC(=O)N(c3ccc(C)cc3)C(=O)C2)cc(OC)c1OC	inconclusive: 103%
COC(=O)c1scc(S(=O)(=O)C(C)(C)C)c1N	inconclusive: 179%
COc1cc2c(cc1NC(=O)COC(=O)/C=C/c1ccc([N+](=O)[O-])cc1)oc1ccccc12	inconclusive: 121%
O=C(COC(=O)c1ccc(S(=O)(=O)N2CCCCC2)cc1)NCc1ccco1	inconclusive: 107%
Cc1cc(NC(=O)CN2CC(C)OC(C)C2)n(-c2nc3ccccc3s2)n1 (centres undefined)	inactive: 101%

Some of these compounds in order of heavy-atom count, high to low:
Structure (SMILES)	binding response (% of control)
CCCCCCN(C(=O)CCCCCN1C(=O)NC(c2ccc(-c3ccccc3)cc2)C(C(=O)OCc2ccccc2)=C1C)C(C(=O)NCCCC)c1ccc(O)c(C(=O)OC)c1 (centres undefined)	inconclusive: 129%
COc1cc2c(cc1NC(=O)COC(=O)/C=C/c1ccc([N+](=O)[O-])cc1)oc1ccccc12	inconclusive: 121%
CCOC(=O)c1c(NC(=O)COC(=O)c2cc(OC)c(OC)cc2[N+](=O)[O-])sc(C)c1C	inactive: 104%
COc1cc(C(=O)NNC(=S)NC(=O)/C=C/c2ccccc2)cc(OC)c1OC	inconclusive: 116%
O=C(COC(=O)c1ccc(S(=O)(=O)N2CCCCC2)cc1)NCc1ccco1	inconclusive: 107%
COc1cc(C2CC(=O)N(c3ccc(C)cc3)C(=O)C2)cc(OC)c1OC	inconclusive: 103%
CCCc1nnc(NC(=O)CCC(=O)NCc2ccc(OC)cc2)s1	inconclusive: 128%
CC(C)NC(=O)c1sc2c(c1C(=O)Nc1cccnc1)CCCC2	inconclusive: 101%
CCOC(=O)CNC(=O)c1cccnc1Oc1ccc(Cl)cc1	inconclusive: 99.4%
Cc1cc(=O)oc2cc(NS(=O)(=O)c3ccccc3)ccc12	inconclusive: 99.6%
COc1cc(SC)ccc1C(=O)Nc1ccccc1	inactive: 96.1%
COC(=O)c1scc(S(=O)(=O)C(C)(C)C)c1N	inconclusive: 179%
Cc1cc(-c2onc(C)c2C(N)=O)no1	inconclusive: 109%

(further entries)

Structure (SMILES)	binding response (% of control)
COc1cc2c(cc1OC)CN(C(=O)c1ccc(OC)c([N+](=O)[O-])c1)CC2	inconclusive: 70.9%
Cc1cccc(C(=O)NC2CC(C)(C)NC(C)(C)C2)c1	active: 172% [activator]
COc1ccc(/C=N/NC(=O)c2ccco2)cc1OCc1ccccc1	inconclusive: 107%
Cc1ccc(C(=O)NCCNC(=O)c2ccccc2)cc1	inconclusive: 103%
Cc1nnsc1-c1nnc(SCC(=O)c2ccccc2)n1C1CC1	inconclusive: -25.5%
COc1ccccc1NC(=S)N(CCN1CCCCCC1)Cc1cccs1	inactive: 103%
OC(c1cc(C(F)(F)F)nc2c(Cl)cc(Cl)cc12)C1CCCCN1 (centres undefined)	inconclusive: 151%
CC1CCN(C2CCN(C(=O)c3ccccc3F)CC2)CC1	inconclusive: 166%
Cn1c(N)c(-c2nc3cccnc3n2C)sc1=S	inconclusive: 68.8%
CC(=O)Nc1cc(O)cc(O)c1	inconclusive: 113%
COCCCn1c(=O)cc(C)[nH]c1=S	inconclusive: 176%
COc1cnc(SC)nc1Nc1ccc(C#N)cc1	inconclusive: 89.6%
CCOC(=O)c1cc(C(C)=O)c(=O)[nH]c1C	inconclusive: 99.2%
CCOc1ccc(Cn2c(=O)sc3ccccc32)cc1OC	inconclusive: 80.2%
CN(C)S(=O)(=O)c1cccc(NC(=O)CNC2CCCCC2)c1	inconclusive: 92%
CC(C)c1ccccc1NC(=O)CNC(C)c1ccc(F)cc1 (centres undefined)	inconclusive: 103%
S=c1[nH]nc(-c2ccccc2Cl)n1CC1CCCO1 (centres undefined)	inactive: 110%
Cc1cccc(NC(=O)CCCN2C(=S)NC(C)(C)CC2C)c1C (centres undefined)	inconclusive: 91.5%
COc1cc(C(NC=O)C(=O)Nc2c(C)cccc2C)ccc1O (centres undefined)	inconclusive: 60.6%
CCn1c(-c2nn(-c3ccc(C)cc3)ccc2=O)n[nH]c1=S	inconclusive: 99.2%

Structure (SMILES)	binding response (% of control)
O=S(=O)(c1cccc(-c2n[nH]c(=S)o2)c1)N1CCOCC1	inconclusive: 95.7%
CCC(C)NS(=O)(=O)c1ccc(F)c(C(=O)Nc2c(F)cc(F)cc2Br)c1 (centres undefined)	inactive: 98.6%
CN1CCN(C(=O)c2cc3sc4ccccc4c3s2)CC1	inconclusive: 85.9%
O=C(O)c1ccc(/C=N/NC(=S)NCCN2CCOCC2)cc1	inconclusive: 109%
CCC(C)(C(=O)NC1CCCC1)N(Cc1cccs1)C(=O)c1ccc2c(c1)OCO2 (centres undefined)	inactive: 96.4%
O=C1Nc2cc3c(cc2C1=O)sc1ccccc13	inconclusive: 56.6%
CSc1nc(C)nc(N/C=C(\C#N)S(=O)(=O)c2ccccc2Cl)n1	inconclusive: 18.9%
COc1ccccc1N/N=C1\COC(C)(C)CC1=O	inconclusive: 90.3%
O=C(Cn1nc2n(c1=O)-c1ccccc1SC2)N/N=C/c1ccncc1	inconclusive: 61.4%
CCOC(=O)C1CCCN(c2c(N3CCN(C)CC3)c(=O)c2=O)C1 (centres undefined)	inactive: 115%
CC1CCC(C(C)C)C(OC(=O)Cn2c(-c3ccc(Br)cc3)[n+](C)c3ccccc32)C1 (centres undefined)	inconclusive: 98.7%
Cc1ccc(NC(=O)CN2C(=O)N/C(=C/c3cccn3-c3ccc(C(=O)O)cc3)C2=O)cc1	active: -12.7%
COc1ccc(S(=O)(=O)N2CCc3cc(OC)c(OC)cc3C2)cc1	inconclusive: 105%
CC(=O)c1ccc(NC(=O)Nc2ccc(Br)cc2C)cc1	active: 216% [activator]
Cc1cc(C)nc(Nc2ncc(O)n2-c2ccc(C)c(C)c2)n1	inactive: 112%
O=C(COC(=O)c1cccc(F)c1)NC1CC1	inactive: 96.8%
CC1(C)NC(=O)N(CC(=O)OCc2cc(=O)n3cc(Br)ccc3n2)C1=O	inconclusive: 76.1%
COc1ccc(C(=O)NCCc2cn3ccccc3n2)cc1	inconclusive: 81.1%
Cc1cccc(N2C(=O)C3CC3C2=O)c1 (centres undefined)	inconclusive: 96.3%
